These results are taken from article doi:10.1101/2024.12.17.628858.

The chains behind the UniProt entries cited, without tags or fusion partners. Residues count along the entry.
UniProt O75460, residues 19-977: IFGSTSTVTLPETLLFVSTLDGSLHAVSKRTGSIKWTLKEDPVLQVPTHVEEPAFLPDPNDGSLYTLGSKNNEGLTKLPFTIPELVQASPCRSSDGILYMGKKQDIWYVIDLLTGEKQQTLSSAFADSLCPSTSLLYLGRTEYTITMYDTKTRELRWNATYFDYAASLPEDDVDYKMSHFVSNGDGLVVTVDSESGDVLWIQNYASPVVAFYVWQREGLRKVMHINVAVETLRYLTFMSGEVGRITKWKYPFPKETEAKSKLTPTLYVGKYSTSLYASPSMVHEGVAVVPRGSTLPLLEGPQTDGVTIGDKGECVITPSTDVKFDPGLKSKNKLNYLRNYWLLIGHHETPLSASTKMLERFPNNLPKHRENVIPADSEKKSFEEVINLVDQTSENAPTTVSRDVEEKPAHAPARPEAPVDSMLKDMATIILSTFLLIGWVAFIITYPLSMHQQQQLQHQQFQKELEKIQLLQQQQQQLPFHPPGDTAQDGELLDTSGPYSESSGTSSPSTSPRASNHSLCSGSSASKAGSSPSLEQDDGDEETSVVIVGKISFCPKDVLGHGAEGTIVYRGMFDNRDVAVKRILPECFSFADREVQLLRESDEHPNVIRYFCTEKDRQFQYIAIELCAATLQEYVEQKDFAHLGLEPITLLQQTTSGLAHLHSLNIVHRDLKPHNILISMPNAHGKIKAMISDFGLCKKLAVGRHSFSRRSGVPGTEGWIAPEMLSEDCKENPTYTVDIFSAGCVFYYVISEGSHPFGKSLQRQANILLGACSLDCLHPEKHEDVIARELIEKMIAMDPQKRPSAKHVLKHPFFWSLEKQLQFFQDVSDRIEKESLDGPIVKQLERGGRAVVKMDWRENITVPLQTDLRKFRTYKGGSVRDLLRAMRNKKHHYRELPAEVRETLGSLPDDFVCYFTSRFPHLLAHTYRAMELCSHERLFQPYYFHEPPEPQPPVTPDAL
UniProt Q92616: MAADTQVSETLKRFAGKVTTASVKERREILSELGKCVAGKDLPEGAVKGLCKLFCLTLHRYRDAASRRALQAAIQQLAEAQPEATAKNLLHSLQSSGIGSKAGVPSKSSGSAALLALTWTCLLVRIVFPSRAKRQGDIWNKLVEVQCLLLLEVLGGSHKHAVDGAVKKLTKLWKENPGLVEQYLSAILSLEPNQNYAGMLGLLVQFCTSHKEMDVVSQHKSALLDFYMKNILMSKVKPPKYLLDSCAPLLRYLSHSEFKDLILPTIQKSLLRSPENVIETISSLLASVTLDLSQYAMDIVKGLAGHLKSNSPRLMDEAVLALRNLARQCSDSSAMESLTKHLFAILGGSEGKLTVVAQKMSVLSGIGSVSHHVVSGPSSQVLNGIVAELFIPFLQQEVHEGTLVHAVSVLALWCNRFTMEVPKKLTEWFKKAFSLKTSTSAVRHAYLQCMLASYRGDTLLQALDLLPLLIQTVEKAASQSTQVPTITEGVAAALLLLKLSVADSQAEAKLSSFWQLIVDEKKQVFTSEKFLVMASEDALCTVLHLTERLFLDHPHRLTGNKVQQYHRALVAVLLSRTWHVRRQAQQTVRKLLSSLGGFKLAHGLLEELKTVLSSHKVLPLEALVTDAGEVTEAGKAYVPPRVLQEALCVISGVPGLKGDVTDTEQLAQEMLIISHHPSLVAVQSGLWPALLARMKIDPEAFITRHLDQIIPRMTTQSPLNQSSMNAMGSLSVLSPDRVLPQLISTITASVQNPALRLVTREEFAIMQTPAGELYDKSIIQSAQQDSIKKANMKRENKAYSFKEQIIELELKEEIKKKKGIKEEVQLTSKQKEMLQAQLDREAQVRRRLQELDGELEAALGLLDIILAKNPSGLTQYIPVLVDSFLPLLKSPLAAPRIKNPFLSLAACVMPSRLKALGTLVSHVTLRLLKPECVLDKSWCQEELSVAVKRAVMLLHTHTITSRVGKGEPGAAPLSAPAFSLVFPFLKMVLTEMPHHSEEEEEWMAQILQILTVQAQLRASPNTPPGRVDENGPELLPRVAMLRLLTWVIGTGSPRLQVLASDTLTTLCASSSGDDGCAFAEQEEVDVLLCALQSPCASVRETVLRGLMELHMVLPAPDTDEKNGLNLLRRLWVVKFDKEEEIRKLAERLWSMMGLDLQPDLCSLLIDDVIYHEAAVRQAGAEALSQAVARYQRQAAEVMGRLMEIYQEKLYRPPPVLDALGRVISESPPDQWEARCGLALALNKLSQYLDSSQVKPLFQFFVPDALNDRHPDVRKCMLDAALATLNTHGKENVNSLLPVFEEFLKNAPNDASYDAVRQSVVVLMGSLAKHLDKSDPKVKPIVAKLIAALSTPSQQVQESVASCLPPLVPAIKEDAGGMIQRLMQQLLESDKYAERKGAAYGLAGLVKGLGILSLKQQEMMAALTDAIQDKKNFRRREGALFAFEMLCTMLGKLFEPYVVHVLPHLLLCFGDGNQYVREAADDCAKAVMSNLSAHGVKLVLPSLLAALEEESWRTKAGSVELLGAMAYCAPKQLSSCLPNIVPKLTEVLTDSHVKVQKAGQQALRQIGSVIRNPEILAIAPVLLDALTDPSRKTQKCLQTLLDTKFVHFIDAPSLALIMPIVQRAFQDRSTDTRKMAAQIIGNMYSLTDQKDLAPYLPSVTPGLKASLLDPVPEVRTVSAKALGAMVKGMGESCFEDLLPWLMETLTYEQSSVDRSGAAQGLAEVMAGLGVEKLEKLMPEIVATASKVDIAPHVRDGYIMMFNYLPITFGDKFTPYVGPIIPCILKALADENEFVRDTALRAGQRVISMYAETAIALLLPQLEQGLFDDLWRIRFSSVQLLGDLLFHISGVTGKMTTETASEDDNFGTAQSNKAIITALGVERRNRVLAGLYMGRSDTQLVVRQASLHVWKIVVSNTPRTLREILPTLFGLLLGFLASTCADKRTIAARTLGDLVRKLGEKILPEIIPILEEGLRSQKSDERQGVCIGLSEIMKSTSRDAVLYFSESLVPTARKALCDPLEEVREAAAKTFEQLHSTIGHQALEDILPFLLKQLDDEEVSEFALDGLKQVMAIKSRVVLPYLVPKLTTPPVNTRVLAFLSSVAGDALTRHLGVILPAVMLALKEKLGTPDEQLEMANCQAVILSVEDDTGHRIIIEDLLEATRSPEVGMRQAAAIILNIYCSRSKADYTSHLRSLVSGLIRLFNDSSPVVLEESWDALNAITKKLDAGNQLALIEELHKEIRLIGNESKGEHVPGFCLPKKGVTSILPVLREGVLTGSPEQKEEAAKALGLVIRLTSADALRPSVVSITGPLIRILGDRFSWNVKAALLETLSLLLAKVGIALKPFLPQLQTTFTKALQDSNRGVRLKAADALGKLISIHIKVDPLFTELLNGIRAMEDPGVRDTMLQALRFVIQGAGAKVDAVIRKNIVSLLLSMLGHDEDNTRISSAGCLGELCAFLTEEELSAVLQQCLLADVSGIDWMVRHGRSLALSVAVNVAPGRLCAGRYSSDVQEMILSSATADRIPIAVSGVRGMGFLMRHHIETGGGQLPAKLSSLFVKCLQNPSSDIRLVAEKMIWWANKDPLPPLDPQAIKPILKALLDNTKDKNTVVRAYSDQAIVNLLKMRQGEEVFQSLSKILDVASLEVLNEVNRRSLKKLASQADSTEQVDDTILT
UniProt Q14573: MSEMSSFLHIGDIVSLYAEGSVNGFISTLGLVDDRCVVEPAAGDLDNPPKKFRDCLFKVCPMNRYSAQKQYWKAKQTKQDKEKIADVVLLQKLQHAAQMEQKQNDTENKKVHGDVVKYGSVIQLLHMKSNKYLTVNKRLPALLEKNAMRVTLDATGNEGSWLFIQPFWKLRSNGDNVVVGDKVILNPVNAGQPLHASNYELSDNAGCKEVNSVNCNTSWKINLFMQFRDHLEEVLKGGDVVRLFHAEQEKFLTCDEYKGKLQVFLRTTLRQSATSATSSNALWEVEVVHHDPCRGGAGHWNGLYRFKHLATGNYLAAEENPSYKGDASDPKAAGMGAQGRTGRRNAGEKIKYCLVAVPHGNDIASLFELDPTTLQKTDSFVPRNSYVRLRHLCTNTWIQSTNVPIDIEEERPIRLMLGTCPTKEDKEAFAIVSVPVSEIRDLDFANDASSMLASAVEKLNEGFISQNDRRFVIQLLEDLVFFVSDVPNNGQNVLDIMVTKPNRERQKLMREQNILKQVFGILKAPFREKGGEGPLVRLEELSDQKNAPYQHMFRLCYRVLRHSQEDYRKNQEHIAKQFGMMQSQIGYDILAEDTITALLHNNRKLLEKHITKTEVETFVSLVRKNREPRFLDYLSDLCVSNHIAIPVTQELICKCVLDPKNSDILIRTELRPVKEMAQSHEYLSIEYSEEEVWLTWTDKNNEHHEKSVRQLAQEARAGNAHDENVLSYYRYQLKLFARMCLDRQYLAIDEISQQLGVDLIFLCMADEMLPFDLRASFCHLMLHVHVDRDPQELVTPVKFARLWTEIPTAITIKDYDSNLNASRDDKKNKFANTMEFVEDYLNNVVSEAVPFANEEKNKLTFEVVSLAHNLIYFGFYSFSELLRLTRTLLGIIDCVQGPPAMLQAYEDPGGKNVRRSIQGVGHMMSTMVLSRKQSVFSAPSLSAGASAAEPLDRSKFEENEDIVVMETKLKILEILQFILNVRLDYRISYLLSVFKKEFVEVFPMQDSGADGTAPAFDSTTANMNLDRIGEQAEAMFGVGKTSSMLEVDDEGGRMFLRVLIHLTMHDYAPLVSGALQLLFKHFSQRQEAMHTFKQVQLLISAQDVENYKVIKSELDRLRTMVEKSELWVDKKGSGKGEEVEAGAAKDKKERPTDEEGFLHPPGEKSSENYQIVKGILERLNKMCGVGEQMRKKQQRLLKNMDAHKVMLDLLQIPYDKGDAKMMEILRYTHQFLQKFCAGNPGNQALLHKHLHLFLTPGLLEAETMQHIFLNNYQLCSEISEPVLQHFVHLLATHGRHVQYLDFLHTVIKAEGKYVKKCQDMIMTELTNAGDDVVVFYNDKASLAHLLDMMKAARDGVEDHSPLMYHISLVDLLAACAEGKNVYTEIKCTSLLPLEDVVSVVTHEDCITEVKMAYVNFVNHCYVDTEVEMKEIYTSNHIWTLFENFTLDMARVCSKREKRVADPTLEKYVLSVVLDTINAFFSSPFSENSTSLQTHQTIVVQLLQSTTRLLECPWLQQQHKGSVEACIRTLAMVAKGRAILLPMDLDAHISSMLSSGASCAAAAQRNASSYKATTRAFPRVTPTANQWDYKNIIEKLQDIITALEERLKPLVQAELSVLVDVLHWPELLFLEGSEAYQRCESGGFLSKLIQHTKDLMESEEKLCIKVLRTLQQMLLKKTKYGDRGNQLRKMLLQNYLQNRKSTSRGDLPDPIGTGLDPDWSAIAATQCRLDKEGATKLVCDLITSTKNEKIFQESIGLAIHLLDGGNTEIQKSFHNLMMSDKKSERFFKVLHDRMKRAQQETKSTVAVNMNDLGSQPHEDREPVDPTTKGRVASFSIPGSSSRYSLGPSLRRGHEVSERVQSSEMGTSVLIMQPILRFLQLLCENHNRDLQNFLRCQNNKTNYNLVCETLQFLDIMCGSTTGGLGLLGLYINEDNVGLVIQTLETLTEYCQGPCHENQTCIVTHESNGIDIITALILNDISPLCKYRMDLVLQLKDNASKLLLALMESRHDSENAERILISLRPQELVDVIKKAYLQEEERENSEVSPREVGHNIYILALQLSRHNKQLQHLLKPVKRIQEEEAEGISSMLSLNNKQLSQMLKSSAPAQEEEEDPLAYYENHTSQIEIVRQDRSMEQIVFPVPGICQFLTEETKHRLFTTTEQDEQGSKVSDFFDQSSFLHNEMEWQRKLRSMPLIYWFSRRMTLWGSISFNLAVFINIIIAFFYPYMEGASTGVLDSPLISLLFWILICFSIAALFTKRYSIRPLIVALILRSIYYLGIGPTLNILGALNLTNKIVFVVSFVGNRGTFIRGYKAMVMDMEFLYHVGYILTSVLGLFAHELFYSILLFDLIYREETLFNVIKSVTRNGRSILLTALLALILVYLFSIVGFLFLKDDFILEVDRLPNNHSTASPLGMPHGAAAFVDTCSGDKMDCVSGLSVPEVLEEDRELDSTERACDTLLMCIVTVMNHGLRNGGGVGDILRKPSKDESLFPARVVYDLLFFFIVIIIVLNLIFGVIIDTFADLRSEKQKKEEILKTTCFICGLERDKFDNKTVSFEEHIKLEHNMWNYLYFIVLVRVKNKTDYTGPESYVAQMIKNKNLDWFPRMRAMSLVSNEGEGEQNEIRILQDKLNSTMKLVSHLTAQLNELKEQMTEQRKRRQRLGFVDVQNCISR

Experiment [1] addresses full length IRE1 (triple FLAG tagged) (UniProt O75460). Kind of experiment: co-IP.
Experiment [2] shares this target. Kind of experiment: co-IP. The source holds these as a separate data set.

Like-named read-outs stand apart in the source and are kept apart here. No constants are given. Whether binding was seen depends on the method and setting. Binding seen in cells or lysates may run through a third protein. Some binding calls cover weakened binding; strength is not graded here.

As for GCN1 (from UniProt Q92616 1-2671), the binding entry in experiment [1] was “binds”. Regarding ITPR3 (from UniProt Q14573 1-2671), the binding entry in experiment [1] is listed as “binds”. In the case of SEC63 (from UniProt Q9UGP8 1-760), the binding result in experiment [1] was “binds”.

B1: RPN1 (protein, UniProt P04843 24-607)
chain: ASSEAPPLINEDVKRTVDLSSHLAKVTAEVVLAHLGGGSTSRATSFLLALEPELEARLAHLGVQVKGEDEEENNLEVRETKIKGKSGRFFTVKLPVALDPGAKISVIVETVYTHVLHPYPTQITQSEKQFVVFEGNHYFYSPYPTKTQTMRVKLASRNVESYTKLGNPTRSEDLLDYGPFRDVPAYSQDTFKVHYENNSPFLTITSMTRVIEVSHWGNIAVEENVDLKHTGAVLKGPFSRYDYQRQPDSGISSIRSFKTILPAAAQDVYYRDEIGNVSTSHLLILDDSVEMEIRPRFPLFGGWKTHYIVGYNLPSYEYLYNLGDQYALKMRFVDHVFDEQVIDSLTVKIILPEGAKNIEIDSPYEISRAPDELHYTYLDTFGRPVIVAYKKNLVEQHIQDIVVHYTFNKVLMLQEPLLVVAAFYILFFTVIIYVRLDFSITKDPAAEARMKVACITEQVLTLVNKRIGLYRHFDETVNRYKQSRDISTLNSGKKSLETEHKALTSEIALLQSRLKTEGSDLCDRVSEMQKLDAQVKELVLKSAVEAERLVAGKLKKDTYIENEKLISGKRQELVTKIDHILDAL
For the molecule B1, the binding entry in experiment [2] is reported as “binds”.
